Measured values from patent US10327423B2, “Antimicrobial compounds and compositions, and uses thereof” (Akeso Biomedical, Inc., priority 2014, dated 2019).
For at least one compound, name, drawing or mass did not settle the structure.

Tested on: Campylobacter jejuni NCTC 11168 (wildtype and strain carrying a kanamycin resistance gene)
Assay: Patch test on growth plates with Fe-QA and kanamycin
Assay type: cell-based
Conditions: patch with kanamycin only
Excerpt: The wildtype C. jejuni grew normally, and was not affected by FeQ. A patch was also immersed in a solution of kanamycin and Fe-QA, and placed on a growth plate of wildtype C. jejuni. The growth of C. jejuni was impacted showing that wildtype C. jejuni is sensitive to the presence of kanamycin.
The patch experiments were repeated with a Campylobacter jejuni NCTC 11168 strain carrying a kanamycin resistance gene wherein patches were immersed in (i) kanamycin only, (ii) Fe-QA only, and (iii) kanamycin and Fe-QA. The growth of the C. jejuni strain carrying the kanamycin resistance gene was not impacted by the patches immersed in (i) kanamycin and (ii) Fe-QA, however, the growth was impacted by the patch that was immersed in both kanamycin and Fe-QA.

SMILES: NC[C@H]1O[C@H](O[C@H]2[C@H](O)[C@@H](O[C@H]3O[C@H](CO)[C@@H](O)[C@H](N)[C@H]3O)[C@H](N)C[C@@H]2N)[C@H](O)[C@@H](O)[C@@H]1O [kanamycin, reference compound]
- growth on plate around patch: not impacted
